Key:
WT mice = experiment: Plasma insulin 5 minutes after i.p. glucose with peptides, wild type mice; type: in vivo, mouse; conditions: atropine i.p. 15 minutes before
Method: (§1) WT and DT mice were fasted for 16-h (Fast). As indicated, some mice were then administered an intraperitoneal injection of glucose (1 g/kg) with vehicle alone (BSA), GIP alone, Xenin-25 alone (Xen) or GIP plus Xenin-25 (G+X). […] Five minutes after injection of glucose, blood was collected and plasma prepared for insulin assays.
(§2) WT and DT mice were fasted for 16-h (Fast). As indicated, some mice were then administered an intraperitoneal injection of glucose (1 g/kg) with vehicle alone (BSA), GIP alone, Xenin-25 alone (Xen) or GIP plus Xenin-25 (G+X). Five minutes later, blood was collected. Plasma was then prepared and assayed for insulin.
(§3) Activation of parasympathetic neurons that innervate the pancreas can increase glucose-mediated insulin release in vivo. […] Wild type and GIP/DT mice were fasted overnight and then administered glucose in combination with GIP plus Xenin-25 by intraperitoneal injection. […] Blood was collected and plasma prepared 5 minutes after the glucose injection. […] Subsets of parasympathetic neurons that innervate the islets release vasoactive intestinal polypeptide (VIP) and pituitary adenylate cyclase activating peptide (PACAP) when activated. N-terminally truncated forms of PACAP [PACAP(6-38) or PACAP(6-27)] are competitive inhibitors of both VIP receptors (VPAC1 and VPAC2) as well as the PACAP-specific receptor Pac.

GIP/DT mice = experiment: Plasma insulin 5 minutes after i.p. glucose with peptides, GIP/DT mice; type: in vivo, mouse
Method: as §1, §2, §3

CN1[C@@H]2CC[C@H]1C[C@@H](OC(=O)C(CO)c1ccccc1)C2 (stereo partly drawn) [atropine]
effect on plasma insulin levels with GIP in the absence of Xenin-25 (WT mice): no effect on plasma insulin levels in either wild type or GIP/DT mice | inhibition of the increase in plasma insulin level (GIP/DT mice; GIP/DT mice given glucose with GIP plus Xenin-25, atropine 500 micrograms/kg i.p. 15 minutes before, P=0.04): 1.8 fold | effect on plasma insulin levels with GIP in the absence of Xenin-25 (GIP/DT mice; GIP/DT mice, atropine i.p. 15 minutes before): no effect on plasma insulin levels in either wild type or GIP/DT mice

Reference: patent US20140142035A1, “METHODS AND COMPOSITIONS FOR MODULATING INSULIN REGULATION” (The Washington University, priority 2010, published 2014)
